These are yes or no findings as the source states them, for the method shown. Binding seen in cells or lysates may run through a third protein. Some results given as binding are weak or reduced against the parent protein; the word gives no strength. Where a sequence is shown, tags or fusion partners need not be part of it.
Biological target: T1, BirA*-Flag JUN WT (293T), P05412
T1 chain: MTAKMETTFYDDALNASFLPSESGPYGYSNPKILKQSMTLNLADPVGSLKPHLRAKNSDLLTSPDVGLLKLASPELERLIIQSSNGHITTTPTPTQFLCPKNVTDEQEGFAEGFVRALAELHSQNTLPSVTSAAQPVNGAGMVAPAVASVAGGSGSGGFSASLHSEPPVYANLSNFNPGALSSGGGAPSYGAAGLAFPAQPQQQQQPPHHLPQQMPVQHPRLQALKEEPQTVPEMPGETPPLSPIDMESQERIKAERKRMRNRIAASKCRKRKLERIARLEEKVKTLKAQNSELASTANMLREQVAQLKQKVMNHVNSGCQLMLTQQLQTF
Experiment: co-IP
Conditions: remark: other sources report otherwise

- binding: binds
B1: HA-JUN WT, P05412 1-331 (protein)
chain: MTAKMETTFYDDALNASFLPSESGPYGYSNPKILKQSMTLNLADPVGSLKPHLRAKNSDLLTSPDVGLLKLASPELERLIIQSSNGHITTTPTPTQFLCPKNVTDEQEGFAEGFVRALAELHSQNTLPSVTSAAQPVNGAGMVAPAVASVAGGSGSGGFSASLHSEPPVYANLSNFNPGALSSGGGAPSYGAAGLAFPAQPQQQQQPPHHLPQQMPVQHPRLQALKEEPQTVPEMPGETPPLSPIDMESQERIKAERKRMRNRIAASKCRKRKLERIARLEEKVKTLKAQNSELASTANMLREQVAQLKQKVMNHVNSGCQLMLTQQLQTF
